From article PMC5301934 come the findings set out here.

Chains of the proteins cited; added tags and fusions are not shown.
UniProt P14713: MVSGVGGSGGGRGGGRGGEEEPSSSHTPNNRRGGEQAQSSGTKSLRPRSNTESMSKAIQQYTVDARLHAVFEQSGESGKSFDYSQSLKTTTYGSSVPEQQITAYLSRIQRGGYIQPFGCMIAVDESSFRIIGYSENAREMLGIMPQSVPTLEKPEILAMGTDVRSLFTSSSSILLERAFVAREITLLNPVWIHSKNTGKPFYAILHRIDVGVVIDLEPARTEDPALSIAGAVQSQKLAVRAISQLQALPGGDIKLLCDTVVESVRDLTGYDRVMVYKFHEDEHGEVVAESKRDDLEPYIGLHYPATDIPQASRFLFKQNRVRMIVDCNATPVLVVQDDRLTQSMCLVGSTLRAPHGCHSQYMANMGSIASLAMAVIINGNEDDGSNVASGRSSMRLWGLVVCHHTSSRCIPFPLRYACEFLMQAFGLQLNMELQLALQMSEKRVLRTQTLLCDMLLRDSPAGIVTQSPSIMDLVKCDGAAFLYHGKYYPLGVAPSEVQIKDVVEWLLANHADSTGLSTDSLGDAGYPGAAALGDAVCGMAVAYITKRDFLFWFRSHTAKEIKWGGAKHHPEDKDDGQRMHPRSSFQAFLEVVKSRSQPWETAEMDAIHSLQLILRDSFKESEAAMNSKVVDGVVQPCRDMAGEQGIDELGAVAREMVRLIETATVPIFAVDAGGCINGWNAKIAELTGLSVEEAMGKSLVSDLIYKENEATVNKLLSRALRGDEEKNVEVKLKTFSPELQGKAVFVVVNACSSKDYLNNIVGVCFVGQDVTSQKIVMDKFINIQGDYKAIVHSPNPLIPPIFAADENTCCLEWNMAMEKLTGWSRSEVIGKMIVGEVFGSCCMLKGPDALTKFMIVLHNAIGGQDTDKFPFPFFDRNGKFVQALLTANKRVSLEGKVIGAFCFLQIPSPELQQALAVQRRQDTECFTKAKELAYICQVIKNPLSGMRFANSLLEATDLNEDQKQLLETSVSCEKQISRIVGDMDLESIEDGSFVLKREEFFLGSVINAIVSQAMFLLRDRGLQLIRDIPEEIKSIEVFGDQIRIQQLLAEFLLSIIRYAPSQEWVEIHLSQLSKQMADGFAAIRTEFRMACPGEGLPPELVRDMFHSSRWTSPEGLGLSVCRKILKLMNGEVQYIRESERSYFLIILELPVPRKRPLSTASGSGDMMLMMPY

Assay [1] addresses T1, Arabidopsis PIF3 (AtPIF3) fused to the yeast GAL4 activation domain, in vitro translated (Arabidopsis) (UniProt O80536).
T1 sequence (chain, 35S-methionine label): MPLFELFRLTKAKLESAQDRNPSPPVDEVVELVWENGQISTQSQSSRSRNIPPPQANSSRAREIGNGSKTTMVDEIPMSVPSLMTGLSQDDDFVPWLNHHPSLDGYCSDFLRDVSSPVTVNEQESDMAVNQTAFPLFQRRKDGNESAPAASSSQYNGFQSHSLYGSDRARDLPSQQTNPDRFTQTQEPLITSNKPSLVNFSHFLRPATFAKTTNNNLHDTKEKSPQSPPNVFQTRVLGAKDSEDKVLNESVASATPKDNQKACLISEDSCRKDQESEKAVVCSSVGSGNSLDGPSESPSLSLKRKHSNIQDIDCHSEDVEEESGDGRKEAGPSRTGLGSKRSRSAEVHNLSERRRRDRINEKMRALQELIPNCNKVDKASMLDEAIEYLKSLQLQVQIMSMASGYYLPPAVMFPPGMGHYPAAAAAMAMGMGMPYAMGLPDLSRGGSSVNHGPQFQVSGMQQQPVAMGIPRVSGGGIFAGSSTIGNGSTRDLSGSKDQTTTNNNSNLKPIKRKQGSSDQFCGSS
Description: co-IP; in vitro; 35S-labelled TNT proteins; GAD:PIF bait on Protein A Dynabeads through anti-GAD antibody; holophytochrome (phycocyanobilin) as prey in the Pfr form (10 min red light); 4 °C, 4 h in darkness; PBS pH 7.25, 0.1% Tergitol NP-40, 1 mM EDTA, 0.1 mg/ml BSA; autoradiography.

Assay [2] addresses T1, Arabidopsis PIF3 (AtPIF3) fused to the yeast GAL4 activation domain, in vitro translated (Arabidopsis). Briefly: co-IP; in vitro; 35S-labelled TNT proteins; GAD:PIF bait on Protein A Dynabeads through anti-GAD antibody; holophytochrome (phycocyanobilin) as prey in the Pr form (red light, then 5 min far-red light); 4 °C, 4 h in darkness; PBS pH 7.25, 0.1% Tergitol NP-40, 1 mM EDTA, 0.1 mg/ml BSA; autoradiography.

No constants are given. Whether binding was seen depends on the method and setting. In cells and extracts the contact can be indirect. Some results given as binding are weak or reduced against the parent protein; the word gives no strength. Sequences can lack the tags named with a protein.

Consider “Arabidopsis phyB holophytochrome (AtphyB) (from UniProt P14713 1-1172)”, for which the binding result is “binds” in assay [1] and “no binding (condition: Pr form (after far-red light))” in assay [2].
